These are yes or no findings as the source states them, for the method shown. For part of these data: In cells and extracts the contact can be indirect. Some entries that bind do so weakly or less than the wild type. For part of these data: Tags and fused reporters may be left off the sequences shown.
Experiments:
[1] = biological target: cytoskeleton-linking membrane protein 63 (CLIMP-63), endogenous (human (endogenous in HeLa and Rpe-1)) (UniProt Q07065); assay: co-IP; endogenous CLIMP-63 and overexpressed APT2-FLAG WT or S122A in Rpe-1 cells; lysis buffer with 0.5% NP40, Western blot
myc-ZDHHC6 [2] = biological target: T1, myc-ZDHHC6 (UniProt Q9H6R6); assay: co-IP; co-overexpression of CLIMP-63 with ZDHHC2 or ZDHHC6; lysis buffer with 0.5% NP40, immunoprecipitation overnight at 4 °C, Western blot
T1 sequence: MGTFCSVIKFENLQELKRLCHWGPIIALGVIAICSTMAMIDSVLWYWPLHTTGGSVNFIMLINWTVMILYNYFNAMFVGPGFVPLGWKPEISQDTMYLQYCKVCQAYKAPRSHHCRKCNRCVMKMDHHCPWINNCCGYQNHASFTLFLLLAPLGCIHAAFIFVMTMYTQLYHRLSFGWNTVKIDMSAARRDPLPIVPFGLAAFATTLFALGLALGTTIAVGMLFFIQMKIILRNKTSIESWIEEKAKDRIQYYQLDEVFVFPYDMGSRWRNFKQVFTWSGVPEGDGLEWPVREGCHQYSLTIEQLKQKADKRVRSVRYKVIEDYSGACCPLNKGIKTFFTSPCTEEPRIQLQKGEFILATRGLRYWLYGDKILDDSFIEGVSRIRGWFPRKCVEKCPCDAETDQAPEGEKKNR

By UniProt entry, the sequences of proteins in these tests, tags left out. Where a name states a change or a piece, a line headed by the entry shows the natural chain unless it says otherwise. Chains listed by the source or under a name are the forms on record and can include a tag or linker.
UniProt Q07065: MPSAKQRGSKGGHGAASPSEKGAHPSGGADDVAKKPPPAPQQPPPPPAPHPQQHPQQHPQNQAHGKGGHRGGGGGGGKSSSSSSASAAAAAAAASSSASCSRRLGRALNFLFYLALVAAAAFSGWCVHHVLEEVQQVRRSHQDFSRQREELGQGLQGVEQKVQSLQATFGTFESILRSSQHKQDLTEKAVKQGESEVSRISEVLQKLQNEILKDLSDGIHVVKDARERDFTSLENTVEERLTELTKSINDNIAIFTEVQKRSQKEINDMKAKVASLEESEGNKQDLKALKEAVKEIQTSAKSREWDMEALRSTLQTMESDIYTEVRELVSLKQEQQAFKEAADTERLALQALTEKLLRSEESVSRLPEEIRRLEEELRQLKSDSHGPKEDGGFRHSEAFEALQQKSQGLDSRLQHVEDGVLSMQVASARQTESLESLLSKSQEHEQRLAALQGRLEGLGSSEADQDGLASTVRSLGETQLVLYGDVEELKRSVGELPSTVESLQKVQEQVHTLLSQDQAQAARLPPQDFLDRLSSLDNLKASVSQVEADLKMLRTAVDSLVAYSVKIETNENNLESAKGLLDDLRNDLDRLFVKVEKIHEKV
CLIMP-63-CC (Q07065, form named): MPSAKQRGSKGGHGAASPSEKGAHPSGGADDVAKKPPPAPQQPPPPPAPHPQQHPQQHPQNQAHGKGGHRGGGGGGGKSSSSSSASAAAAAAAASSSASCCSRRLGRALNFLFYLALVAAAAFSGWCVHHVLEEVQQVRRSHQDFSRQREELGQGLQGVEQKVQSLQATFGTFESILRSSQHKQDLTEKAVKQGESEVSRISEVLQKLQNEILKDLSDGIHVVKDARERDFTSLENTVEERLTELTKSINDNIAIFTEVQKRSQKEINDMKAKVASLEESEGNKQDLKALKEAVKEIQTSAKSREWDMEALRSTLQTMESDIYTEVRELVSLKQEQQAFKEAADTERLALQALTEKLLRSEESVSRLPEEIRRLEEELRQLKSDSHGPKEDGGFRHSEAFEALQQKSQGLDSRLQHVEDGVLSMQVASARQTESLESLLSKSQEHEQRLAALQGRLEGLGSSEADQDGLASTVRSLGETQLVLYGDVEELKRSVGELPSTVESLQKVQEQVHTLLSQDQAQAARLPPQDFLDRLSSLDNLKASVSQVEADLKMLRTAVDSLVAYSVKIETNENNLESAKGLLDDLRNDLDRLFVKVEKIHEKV
UniProt Q9UIJ5: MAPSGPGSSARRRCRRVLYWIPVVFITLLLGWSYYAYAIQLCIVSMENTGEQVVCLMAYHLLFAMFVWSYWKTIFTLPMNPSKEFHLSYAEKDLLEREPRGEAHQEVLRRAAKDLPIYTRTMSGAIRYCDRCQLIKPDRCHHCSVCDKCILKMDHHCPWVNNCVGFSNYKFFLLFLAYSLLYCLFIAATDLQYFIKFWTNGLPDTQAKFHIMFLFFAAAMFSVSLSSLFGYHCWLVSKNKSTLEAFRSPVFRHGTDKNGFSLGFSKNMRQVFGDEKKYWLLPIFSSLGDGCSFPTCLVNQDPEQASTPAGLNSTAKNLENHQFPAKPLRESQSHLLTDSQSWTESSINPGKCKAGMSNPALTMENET
UniProt O95372: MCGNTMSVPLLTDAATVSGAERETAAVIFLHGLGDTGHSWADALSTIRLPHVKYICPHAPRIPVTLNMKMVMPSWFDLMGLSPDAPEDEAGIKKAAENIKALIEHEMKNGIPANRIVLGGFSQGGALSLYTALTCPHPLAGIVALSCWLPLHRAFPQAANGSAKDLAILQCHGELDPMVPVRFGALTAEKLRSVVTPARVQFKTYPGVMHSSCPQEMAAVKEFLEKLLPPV

myc-ZDHHC2 [3] = biological target: myc-ZDHHC2 (UniProt Q9UIJ5); assay: as above
CLIMP-63-CC (human) = CLIMP-63-CC (human) (UniProt Q07065); assay: native gel or EMSA; Blue Native PAGE of samples from cells, Western blot
[4] = biological target: HA-CLIMP-63 C100A (human) (UniProt Q07065); assay: co-IP; shCLIMP-63 HeLa cells co-expressing HA-CLIMP-63 and RFP-CLIMP-63 (WT or C100A); with 35S Cys/Met metabolic labelling; Western blot and autoradiography
[5] = biological target: HA-CLIMP-63 C100A (human) (UniProt Q07065); assay: native gel or EMSA; Blue Native PAGE of samples from cells, Western blot
HA-CLIMP-63 WT (human) [6] = biological target: HA-CLIMP-63 WT (human) (UniProt Q07065); assay: co-IP; shCLIMP-63 HeLa cells co-expressing HA-CLIMP-63 and RFP-CLIMP-63 (WT or C100A); with 35S Cys/Met metabolic labelling; Western blot and autoradiography
HA-CLIMP-63 WT (human) [7] = biological target: HA-CLIMP-63 WT (human) (UniProt Q07065); assay: native gel or EMSA; Blue Native PAGE of samples from cells, Western blot
[8] = biological target: cytoskeleton-linking membrane protein 63 (CLIMP-63), endogenous (human (endogenous in HeLa and Rpe-1)) (UniProt Q07065); assay: as above
myc-ZDHHC6 [9] = biological target: T1, myc-ZDHHC6; assay: proximity ligation; Duolink-PLA probing endogenous CLIMP-63 in HeLa cells expressing myc-ZDHHC2 or myc-ZDHHC6, or in ZDHHC6 KO cells expressing myc-ZDHHC2; dots per cell area
myc-ZDHHC2 [10] = biological target: myc-ZDHHC2 (UniProt Q9UIJ5); assay: as above

**Q.** “APT2-FLAG S122A (catalytic inactive mutant) (from UniProt O95372 1-231) (enzyme)” was tested. Which binding [1] did it give?
**A.** binds

**Q.** With “APT2-FLAG WT (acyl protein thioesterase 2) (from UniProt O95372 1-231) (enzyme)” as the substance, how does the binding [1] read?
**A.** binds

**Q.** For “CLIMP-63, co-overexpressed with ZDHHC2 or ZDHHC6 (from UniProt Q07065 1-602)”, which binding (myc-ZDHHC6 [2]) is on record?
**A.** binds

**Q.** What about the binding (myc-ZDHHC2 [3]) of the same substance?
**A.** binds

**Q.** How did the binding (CLIMP-63-CC (human)) turn out when CLIMP-63-CC (from UniProt Q07065 1-602) was run?
**A.** binds

**Q.** Which binding [4] does the source give for “HA-CLIMP-63 C100A (from UniProt Q07065 1-602)” here?
**A.** binds

**Q.** And the binding [5]?
**A.** binds

**Q.** Which results are given for “HA-CLIMP-63 WT (from UniProt Q07065 1-602)”?
**A.** binding (HA-CLIMP-63 WT (human) [6]): binds; binding (HA-CLIMP-63 WT (human) [7]): binds

**Q.** With “cytoskeleton-linking membrane protein 63 (CLIMP-63), endogenous (from UniProt Q07065 1-602)” as the substance, how does the binding [8] read?
**A.** binds

**Q.** What about the binding (myc-ZDHHC6 [9]) of the same substance?
**A.** binds

**Q.** What about the binding (myc-ZDHHC2 [10]) of the same substance?
**A.** binds
